Results are given in words; binding and its absence hold for the method and conditions named. In cells and extracts the contact can be indirect. Binding calls can cover weak binding; strength is not graded here.

By UniProt entry, the sequences of proteins in these tests, tags left out. Where a name states a change or a piece, a line headed by the entry shows the natural chain unless it says otherwise.
UniProt Q61527: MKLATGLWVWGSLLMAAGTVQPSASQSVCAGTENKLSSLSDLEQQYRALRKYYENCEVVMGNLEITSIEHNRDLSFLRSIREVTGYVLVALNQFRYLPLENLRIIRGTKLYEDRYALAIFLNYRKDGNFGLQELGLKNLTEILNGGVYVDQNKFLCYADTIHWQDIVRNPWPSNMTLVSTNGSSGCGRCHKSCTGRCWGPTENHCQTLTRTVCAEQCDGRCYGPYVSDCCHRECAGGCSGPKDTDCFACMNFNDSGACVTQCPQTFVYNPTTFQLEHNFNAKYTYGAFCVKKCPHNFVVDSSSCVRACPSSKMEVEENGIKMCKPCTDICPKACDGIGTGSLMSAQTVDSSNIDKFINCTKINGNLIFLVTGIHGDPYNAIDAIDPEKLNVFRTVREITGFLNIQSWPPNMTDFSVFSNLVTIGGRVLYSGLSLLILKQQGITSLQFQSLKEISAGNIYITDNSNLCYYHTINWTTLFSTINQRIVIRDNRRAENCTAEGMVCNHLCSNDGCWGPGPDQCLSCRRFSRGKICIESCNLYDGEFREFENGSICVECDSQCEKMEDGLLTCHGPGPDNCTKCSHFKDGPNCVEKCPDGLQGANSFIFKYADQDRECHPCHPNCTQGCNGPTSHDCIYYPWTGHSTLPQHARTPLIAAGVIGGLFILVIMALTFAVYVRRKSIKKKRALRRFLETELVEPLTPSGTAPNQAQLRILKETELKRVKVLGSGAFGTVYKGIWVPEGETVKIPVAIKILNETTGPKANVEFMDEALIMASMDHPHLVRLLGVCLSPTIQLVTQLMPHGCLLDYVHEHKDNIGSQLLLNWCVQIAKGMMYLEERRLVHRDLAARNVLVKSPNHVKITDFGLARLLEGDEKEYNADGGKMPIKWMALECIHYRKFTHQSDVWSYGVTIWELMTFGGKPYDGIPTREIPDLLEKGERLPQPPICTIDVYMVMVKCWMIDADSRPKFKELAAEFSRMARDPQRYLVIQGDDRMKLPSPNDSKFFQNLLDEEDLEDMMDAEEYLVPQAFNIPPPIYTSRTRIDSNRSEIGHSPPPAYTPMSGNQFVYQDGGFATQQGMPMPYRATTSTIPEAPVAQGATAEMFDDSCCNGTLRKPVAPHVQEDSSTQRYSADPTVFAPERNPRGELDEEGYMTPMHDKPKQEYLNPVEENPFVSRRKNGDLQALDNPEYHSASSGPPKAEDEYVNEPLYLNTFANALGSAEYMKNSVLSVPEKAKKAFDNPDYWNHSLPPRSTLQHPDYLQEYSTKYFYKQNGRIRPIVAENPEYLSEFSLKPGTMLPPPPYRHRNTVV

For this experiment, the target named is ERBB4 (endogenous, primary mouse cardiomyocytes) (mouse (endogenous in primary neonatal cardiomyocytes)) (UniProt Q61527). The experiment in a line: proximity ligation.

B1: dynamin-2 (endogenous, primary mouse cardiomyocytes) (protein, UniProt P39054 1-870)
chain: MGNRGMEELIPLVNKLQDAFSSIGQSCHLDLPQIAVVGGQSAGKSSVLENFVGRDFLPRGSGIVTRRPLILQLIFSKTEYAEFLHCKSKKFTDFDEVRQEIEAETDRVTGTNKGISPVPINLRVYSPHVLNLTLIDLPGITKVPVGDQPPDIEYQIKDMILQFISRESSLILAVTPANMDLANSDALKLAKEVDPQGLRTIGVITKLDLMDEGTDARDVLENKLLPLRRGYIGVVNRSQKDIEGKKDIRAALAAERKFFLSHPAYRHMADRMGTPHLQKTLNQQLTNHIRESLPTLRSKLQSQLLSLEKEVEEYKNFRPDDPTRKTKALLQMVQQFGVDFEKRIEGSGDQVDTLELSGGARINRIFHERFPFELVKMEFDEKDLRREISYAIKNIHGVRTGLFTPDLAFEAIVKKQVVKLKEPCLKCVDLVIQELISTVRQCTSKLSSYPRLREETERIVTTYIREREGRTKDQILLLIDIEQSYINTNHEDFIGFANAQQRSTQLNKKRAIPNQGEILVIRRGWLTINNISLMKGGSKEYWFVLTAESLSWYKDEEEKEKKYMLPLDNLKIRDVEKGFMSNKHVFAIFNTEQRNVYKDLRQIELACDSQEDVDSWKASFLRAGVYPEKDQAENEDGAQENTFSMDPQLERQVETIRNLVDSYVAIINKSIRDLMPKTIMHLMINNTKAFIHHELLAYLYSSADQSSLMEESAEQAQRRDDMLRMYHALKEALNIIGDISTSTVSTPVPPPVDDTWLQNTSGHSPTPQRRPVSSVHPPGRPPAVRGPTPGPPLIPMPVGATSSFSAPPIPSRPGPQSVFANNDPFSAPPQIPSRPARIPPGIPPGVPSRRAPAAPSRPTIIRPAEPSLLD
As for B1, the binding entry was “binds”.

The values are drawn from publication doi:10.1101/2022.10.05.510958.
